Patent publication US8304238B2, “Cell culture medium and immobilized preparation of cell adhesion protein or peptide” (Nat'l Institute for Environmental Studies, priority 2003, dated 2012)
Some of these results come from one statement about several compounds together. Where no end group is shown, it is not given here. [ ]: non-standard residue; d: D form. Nle = CCCC[C@H](N)C(=O)O

Tested on: alveolar type II epithelial cells (T2 cells)
Assay: Inhibition of T2 cell adhesion to immobilized pseudomatrices by heparin treatment
Assay type: cell-based
Conditions: peptide immobilized as MBAC-peptide 1-10 μg/ml; 1 mg/ml heparin 2 hours
Experimental: Pseudomatrices prepared in Example 13 to which each cell adhesion peptide was bound (MBAC-peptide) was diluted in DMEM medium to the concentration of 1-10 μg/ml, poured into 96-wells by 100 μl each, and left still overnight in a CO2 incubator to be adsorbed and immobilized on the wells. Non-adsorbed MBAC-peptide was removed by rinsing well with DMEM medium. Next, 100 μl of DMEM in which 1 mg/ml of heparin was dissolved was poured into the wells, incubated for 2 hours to allow heparin to bind to the peptides. Control groups were treated with DMEM only. Heparin was removed after the treatment, and T2 cells suspended at the concentration of 6×10^5 cells/ml were seeded by 100 μl each. After 1-day serum-free culture, T2 cells were fixed with 100 μl of methanol for 5 minutes, and stained with 50 μl of 0.4% crystal violet for 30 minutes. Excessive staining was washed with water, and the number of adhering cells was counted based on the absorbance of cytoplasm (A595).

Row | Substance | Inhibition of cell adhesion by heparin treatment in comparison to control groups
1 | GEKSQFSIRLKT | 35-55%
2 | KPRLQFSLDIQT | 25-40%
3 | LQQRRSVLRTKI | 35-55%
4 | RKRLQVQLSIRT | 25-40%
5 | RNRLHLS[Nle]LVRP [A5G73X] | 35-55%
6 | TLFLAHGRLVF[Nle] [A4G82X] | 25-40%
7 | TLQLQEGRLHF[Nle] [AG76.8X] | 35-55%
8 | VKTEYIKRKAF[Nle] [AG81.2X] | 35-55%
